From the supplement of paper PMC6411743
± gives the standard deviation of the averaged measurements. Some of the results follow.

By UniProt entry, the sequences of proteins in these tests, tags left out. Where a name states a change or a piece, a line headed by the entry shows the natural chain unless it says otherwise.
UniProt Q8N0X4: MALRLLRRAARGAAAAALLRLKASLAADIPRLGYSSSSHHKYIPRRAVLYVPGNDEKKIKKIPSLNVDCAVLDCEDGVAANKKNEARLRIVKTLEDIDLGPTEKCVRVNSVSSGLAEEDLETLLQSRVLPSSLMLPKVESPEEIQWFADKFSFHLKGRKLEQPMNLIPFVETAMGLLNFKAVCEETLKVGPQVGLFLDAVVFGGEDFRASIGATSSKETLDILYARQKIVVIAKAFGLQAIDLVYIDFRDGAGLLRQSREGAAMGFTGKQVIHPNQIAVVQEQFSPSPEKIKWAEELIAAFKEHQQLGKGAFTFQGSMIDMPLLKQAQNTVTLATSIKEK
UniProt Q8NCE2: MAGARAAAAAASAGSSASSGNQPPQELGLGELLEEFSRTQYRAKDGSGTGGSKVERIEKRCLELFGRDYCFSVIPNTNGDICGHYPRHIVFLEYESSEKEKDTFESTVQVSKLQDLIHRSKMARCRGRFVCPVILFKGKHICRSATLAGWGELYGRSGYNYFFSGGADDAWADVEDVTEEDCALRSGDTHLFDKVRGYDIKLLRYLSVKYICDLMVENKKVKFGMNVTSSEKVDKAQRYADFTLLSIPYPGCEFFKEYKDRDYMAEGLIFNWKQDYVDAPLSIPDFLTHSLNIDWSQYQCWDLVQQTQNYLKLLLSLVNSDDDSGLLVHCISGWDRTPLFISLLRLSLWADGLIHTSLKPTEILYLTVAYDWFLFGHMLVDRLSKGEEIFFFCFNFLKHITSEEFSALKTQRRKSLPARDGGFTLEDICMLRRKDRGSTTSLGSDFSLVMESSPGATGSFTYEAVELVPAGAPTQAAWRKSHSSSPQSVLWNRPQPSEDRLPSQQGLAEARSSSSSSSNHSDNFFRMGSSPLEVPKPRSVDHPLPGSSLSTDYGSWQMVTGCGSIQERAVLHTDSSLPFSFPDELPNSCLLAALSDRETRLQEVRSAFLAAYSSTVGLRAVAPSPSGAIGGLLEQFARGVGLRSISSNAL
UniProt Q8IY63: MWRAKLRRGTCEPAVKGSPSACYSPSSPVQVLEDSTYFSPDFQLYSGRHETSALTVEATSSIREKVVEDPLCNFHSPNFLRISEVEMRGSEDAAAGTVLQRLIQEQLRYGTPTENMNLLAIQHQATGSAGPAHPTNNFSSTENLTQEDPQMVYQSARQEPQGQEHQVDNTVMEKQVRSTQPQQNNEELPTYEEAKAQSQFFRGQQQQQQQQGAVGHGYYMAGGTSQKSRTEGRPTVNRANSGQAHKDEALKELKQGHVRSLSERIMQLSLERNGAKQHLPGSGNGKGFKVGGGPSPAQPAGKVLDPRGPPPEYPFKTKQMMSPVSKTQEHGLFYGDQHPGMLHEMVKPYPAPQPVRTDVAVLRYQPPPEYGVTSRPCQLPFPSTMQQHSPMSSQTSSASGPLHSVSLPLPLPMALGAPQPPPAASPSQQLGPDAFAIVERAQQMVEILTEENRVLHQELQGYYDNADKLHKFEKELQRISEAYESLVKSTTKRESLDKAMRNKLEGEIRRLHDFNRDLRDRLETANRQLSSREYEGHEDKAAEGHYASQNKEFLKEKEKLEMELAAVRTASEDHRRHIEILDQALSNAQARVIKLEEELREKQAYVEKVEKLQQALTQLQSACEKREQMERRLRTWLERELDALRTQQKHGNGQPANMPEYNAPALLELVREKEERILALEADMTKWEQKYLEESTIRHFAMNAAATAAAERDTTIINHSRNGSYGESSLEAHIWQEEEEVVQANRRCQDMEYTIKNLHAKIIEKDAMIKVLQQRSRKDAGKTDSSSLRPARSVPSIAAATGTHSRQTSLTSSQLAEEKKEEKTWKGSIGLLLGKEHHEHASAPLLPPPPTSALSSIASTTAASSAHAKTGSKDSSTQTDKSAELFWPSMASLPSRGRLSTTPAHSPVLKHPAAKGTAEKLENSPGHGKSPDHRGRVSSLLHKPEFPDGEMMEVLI
UniProt Q8ND04: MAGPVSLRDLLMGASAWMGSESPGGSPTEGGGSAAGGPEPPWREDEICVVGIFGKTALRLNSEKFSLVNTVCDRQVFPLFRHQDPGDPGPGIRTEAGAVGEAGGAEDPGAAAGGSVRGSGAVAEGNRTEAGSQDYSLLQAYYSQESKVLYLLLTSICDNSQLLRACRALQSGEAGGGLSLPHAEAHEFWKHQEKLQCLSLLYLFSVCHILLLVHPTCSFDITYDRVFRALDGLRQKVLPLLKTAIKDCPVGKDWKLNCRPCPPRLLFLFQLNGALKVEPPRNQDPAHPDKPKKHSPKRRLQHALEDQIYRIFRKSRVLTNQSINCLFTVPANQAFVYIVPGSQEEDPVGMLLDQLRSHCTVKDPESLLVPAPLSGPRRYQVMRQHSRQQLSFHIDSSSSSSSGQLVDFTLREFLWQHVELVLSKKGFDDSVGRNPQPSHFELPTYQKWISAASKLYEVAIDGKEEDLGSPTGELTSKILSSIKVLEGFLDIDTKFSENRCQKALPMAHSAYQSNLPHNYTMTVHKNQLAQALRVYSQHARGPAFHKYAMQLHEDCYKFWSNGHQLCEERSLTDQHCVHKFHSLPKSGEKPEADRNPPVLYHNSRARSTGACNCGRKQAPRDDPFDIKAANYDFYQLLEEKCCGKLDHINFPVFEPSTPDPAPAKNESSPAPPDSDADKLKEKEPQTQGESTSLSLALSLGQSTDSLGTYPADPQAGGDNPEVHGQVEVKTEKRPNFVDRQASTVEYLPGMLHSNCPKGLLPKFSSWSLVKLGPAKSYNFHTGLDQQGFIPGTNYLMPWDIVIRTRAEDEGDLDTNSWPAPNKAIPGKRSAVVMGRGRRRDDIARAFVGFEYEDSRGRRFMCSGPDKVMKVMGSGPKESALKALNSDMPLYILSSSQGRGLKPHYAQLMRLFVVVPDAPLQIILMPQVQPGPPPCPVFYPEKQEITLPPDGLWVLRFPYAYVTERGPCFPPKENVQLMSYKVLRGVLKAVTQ
UniProt Q8WTT2: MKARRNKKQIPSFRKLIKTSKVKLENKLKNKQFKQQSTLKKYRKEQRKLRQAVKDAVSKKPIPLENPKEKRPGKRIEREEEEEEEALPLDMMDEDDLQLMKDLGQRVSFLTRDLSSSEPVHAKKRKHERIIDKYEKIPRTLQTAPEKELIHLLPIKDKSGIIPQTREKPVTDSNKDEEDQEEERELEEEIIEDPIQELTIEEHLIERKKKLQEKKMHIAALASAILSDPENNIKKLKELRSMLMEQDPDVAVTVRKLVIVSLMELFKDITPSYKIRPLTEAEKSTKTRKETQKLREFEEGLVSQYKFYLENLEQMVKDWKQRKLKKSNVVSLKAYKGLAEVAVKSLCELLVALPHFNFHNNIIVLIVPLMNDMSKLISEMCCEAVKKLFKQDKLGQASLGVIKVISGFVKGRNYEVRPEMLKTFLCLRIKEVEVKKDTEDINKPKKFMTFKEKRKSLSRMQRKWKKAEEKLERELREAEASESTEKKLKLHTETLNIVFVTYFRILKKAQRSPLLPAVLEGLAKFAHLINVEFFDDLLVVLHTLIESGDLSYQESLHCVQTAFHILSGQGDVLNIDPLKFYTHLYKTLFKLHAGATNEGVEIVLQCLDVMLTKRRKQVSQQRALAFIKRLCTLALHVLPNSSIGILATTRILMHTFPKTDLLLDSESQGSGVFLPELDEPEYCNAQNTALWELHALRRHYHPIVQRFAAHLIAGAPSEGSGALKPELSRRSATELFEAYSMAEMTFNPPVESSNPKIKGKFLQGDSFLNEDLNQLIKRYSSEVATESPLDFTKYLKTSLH
UniProt Q86YC3: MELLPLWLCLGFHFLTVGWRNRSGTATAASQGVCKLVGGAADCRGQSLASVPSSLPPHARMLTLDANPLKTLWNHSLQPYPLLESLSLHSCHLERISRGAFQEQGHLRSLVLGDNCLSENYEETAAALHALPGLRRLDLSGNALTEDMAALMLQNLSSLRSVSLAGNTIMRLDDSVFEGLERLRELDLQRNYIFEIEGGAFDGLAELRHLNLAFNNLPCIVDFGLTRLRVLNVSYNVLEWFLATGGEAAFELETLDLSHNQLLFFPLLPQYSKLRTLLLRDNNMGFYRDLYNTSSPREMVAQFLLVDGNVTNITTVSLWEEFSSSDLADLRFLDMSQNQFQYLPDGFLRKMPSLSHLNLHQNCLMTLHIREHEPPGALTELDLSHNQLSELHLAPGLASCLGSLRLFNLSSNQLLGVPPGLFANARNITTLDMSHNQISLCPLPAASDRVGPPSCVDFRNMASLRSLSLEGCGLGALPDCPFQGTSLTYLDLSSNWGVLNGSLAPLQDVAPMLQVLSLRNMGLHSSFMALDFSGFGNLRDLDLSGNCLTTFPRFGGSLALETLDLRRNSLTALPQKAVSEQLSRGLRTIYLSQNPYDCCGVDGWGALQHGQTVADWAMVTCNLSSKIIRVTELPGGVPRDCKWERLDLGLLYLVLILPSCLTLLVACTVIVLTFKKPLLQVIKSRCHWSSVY
UniProt Q8WU10: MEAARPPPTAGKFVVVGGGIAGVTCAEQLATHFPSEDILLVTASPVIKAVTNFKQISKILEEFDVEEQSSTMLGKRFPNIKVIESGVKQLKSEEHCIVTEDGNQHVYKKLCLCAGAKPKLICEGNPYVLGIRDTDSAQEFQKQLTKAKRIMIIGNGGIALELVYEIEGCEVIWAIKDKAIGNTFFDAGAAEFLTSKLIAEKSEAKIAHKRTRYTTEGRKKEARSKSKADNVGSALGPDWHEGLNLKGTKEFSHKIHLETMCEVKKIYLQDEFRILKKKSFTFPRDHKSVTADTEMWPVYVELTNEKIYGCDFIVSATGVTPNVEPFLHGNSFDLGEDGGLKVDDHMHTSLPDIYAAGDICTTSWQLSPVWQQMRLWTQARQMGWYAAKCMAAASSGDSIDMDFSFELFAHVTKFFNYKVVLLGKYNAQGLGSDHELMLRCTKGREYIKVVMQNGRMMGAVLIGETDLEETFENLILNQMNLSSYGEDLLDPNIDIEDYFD
UniProt Q8IWB7: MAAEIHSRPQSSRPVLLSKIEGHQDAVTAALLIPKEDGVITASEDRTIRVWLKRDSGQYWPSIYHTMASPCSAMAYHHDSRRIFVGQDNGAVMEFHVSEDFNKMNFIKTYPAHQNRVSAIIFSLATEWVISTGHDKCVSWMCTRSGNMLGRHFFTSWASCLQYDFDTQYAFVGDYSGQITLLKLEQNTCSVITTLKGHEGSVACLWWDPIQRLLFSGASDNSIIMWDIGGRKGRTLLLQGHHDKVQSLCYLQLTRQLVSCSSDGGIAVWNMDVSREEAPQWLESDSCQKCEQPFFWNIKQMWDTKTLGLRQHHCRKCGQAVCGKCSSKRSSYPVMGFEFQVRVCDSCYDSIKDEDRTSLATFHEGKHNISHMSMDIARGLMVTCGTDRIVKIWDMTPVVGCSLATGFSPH
UniProt Q8N6S5: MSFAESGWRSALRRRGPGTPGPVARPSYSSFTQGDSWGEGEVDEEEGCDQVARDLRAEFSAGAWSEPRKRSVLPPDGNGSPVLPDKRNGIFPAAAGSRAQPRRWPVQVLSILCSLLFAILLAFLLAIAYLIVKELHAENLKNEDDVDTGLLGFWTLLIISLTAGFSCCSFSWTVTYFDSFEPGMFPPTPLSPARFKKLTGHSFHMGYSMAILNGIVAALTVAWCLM
UniProt Q8TAP9: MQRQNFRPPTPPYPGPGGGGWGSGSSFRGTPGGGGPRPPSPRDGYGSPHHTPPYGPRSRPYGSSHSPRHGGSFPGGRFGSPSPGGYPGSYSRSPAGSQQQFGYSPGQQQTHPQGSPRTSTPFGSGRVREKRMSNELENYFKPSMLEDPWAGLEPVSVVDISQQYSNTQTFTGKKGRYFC
UniProt Q8N9V3: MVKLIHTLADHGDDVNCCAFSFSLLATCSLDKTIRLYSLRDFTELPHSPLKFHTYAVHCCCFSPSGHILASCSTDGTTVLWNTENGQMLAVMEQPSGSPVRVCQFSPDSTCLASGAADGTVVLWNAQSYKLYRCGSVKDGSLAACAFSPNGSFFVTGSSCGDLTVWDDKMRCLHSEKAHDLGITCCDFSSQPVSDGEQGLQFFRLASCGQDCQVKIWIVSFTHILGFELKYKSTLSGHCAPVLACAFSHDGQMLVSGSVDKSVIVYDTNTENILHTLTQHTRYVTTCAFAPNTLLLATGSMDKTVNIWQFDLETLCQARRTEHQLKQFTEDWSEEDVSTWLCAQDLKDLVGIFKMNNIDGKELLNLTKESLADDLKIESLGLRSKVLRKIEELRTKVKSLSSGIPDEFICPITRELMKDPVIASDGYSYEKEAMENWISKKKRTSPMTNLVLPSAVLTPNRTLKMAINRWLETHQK
UniProt Q8NFH3: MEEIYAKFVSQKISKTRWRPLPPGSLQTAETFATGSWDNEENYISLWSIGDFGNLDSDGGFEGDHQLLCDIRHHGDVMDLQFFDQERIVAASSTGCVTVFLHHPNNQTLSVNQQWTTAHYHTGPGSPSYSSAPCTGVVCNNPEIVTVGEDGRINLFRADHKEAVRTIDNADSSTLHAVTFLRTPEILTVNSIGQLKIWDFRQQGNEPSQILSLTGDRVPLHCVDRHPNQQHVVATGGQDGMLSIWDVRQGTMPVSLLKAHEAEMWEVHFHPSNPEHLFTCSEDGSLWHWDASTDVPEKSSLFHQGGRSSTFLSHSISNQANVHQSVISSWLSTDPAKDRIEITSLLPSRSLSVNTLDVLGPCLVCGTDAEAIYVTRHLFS

Compound: Nc1nc2c(ncn2[C@@H]2O[C@H](COP(=O)(O)OP(=O)(O)OP(=O)(O)O)[C@@H](O)[C@H]2O)c(=O)[nH]1 [guanosine triphosphate]
Assay: NP40-soluble protein abundance relative to vehicle (solubility fold change) (ratio); higher = more soluble protein in presence of GTP
Method in brief: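 Each value is a fold change relative to the detergent-processed vehicle, calculated per replicate from vsn-normalised intensities. Jurkat crude lysate received eight concentrations (0.1 to 10 mM) for 10 min at room temperature and 3 min at 37 °C, then was solubilised in 0.8% NP40 with benzonase (60 min, 4 °C). The ultracentrifuged supernatant was TMT-labelled and run by LC-MS/MS in three independent experiments.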

Target | NP40-soluble protein abundance (concentration: 0.1mM) | NP40-soluble protein abundance (concentration: 0.5mM) | NP40-soluble protein abundance (concentration: 1mM) | NP40-soluble protein abundance (concentration: 2mM) | NP40-soluble protein abundance (concentration: 4mM) | NP40-soluble protein abundance (concentration: 6mM) | NP40-soluble protein abundance (concentration: 8mM) | NP40-soluble protein abundance (concentration: 10mM)
UniProt Q8IXB1 and related entries | 1.17 ± 0.21 | 1.06 ± 0.11 | 1.08 ± 0.1 | 1.17 ± 0.15 | 1.1 ± 0.11 | 1.11 ± 0.16 | 1.1 ± 0.11 | 1.06 ± 0.084
UniProt Q8N0X4 and related entries | 1.21 ± 0.1 | 1.075 ± 0.0048 | 1.17 ± 0.055 | 1.08 ± 0.049 | 1.08 ± 0.057 | 1.04 ± 0.08 | 1.06 ± 0.037 | 1.04 ± 0.052
UniProt Q8NCE2 and related entries | 1.07 ± 0.086 | 1.06 ± 0.09 | 0.995 ± 0.1 | 1.07 ± 0.095 | 0.985 ± 0.077 | 0.936 ± 0.086 | 0.942 ± 0.036 | 0.915 ± 0.045
UniProt Q8NG31 and related entries | 1.03 ± 0.017 | 1.02 ± 0.032 | 1.02 ± 0.013 | 1.04 ± 0.056 | 1.04 ± 0.053 | 1.04 ± 0.056 | 1.04 ± 0.055 | 1.03 ± 0.054
UniProt Q8N122 and related entries | 1.04 ± 0.041 | 1.05 ± 0.071 | 1.02 ± 0.082 | 0.987 ± 0.09 | 1.02 ± 0.096 | 1.03 ± 0.09 | 0.976 ± 0.084 | 0.957 ± 0.067
RASAL3 (UniProt Q86YV0) | 1.03 ± 0.033 | 1.05 ± 0.037 | 1.07 ± 0.032 | 1.11 ± 0.038 | 1.13 ± 0.056 | 1.12 ± 0.056 | 1.14 ± 0.093 | 1.16 ± 0.093
UniProt Q8N6N3 and related entries | 1.05 ± 0.16 | 1.01 ± 0.035 | 1.04 ± 0.015 | 0.998 ± 0.053 | 0.981 ± 0.11 | 1.03 ± 0.11 | 1.04 ± 0.052 | 1.04 ± 0.024
UniProt Q8IY63 and related entries | 0.94 ± 0.081 | 0.991 ± 0.041 | 1.03 ± 0.049 | 1.09 ± 0.1 | 1.11 ± 0.062 | 1.25 ± 0.06 | 1.2 ± 0.1 | 1.27 ± 0.12
UniProt Q8ND04 and related entries | 1.11 ± 0.083 | 1.15 ± 0.04 | 1.12 ± 0.062 | 1.14 ± 0.051 | 1.09 ± 0.055 | 1.09 ± 0.099 | 1.1 ± 0.07 | 1.03 ± 0.068
NOC3L (UniProt Q8WTT2) | 1.03 ± 0.051 | 1.01 ± 0.028 | 1.11 ± 0.039 | 1.2 ± 0.047 | 1.31 ± 0.069 | 1.34 ± 0.064 | 1.35 ± 0.075 | 1.46 ± 0.087
THOC2 (UniProt Q8NI27) | 1.14 ± 0.054 | 1.33 ± 0.14 | 1.39 ± 0.15 | 1.72 ± 0.29 | 2.05 ± 0.4 | 2.18 ± 0.51 | 2.23 ± 0.54 | 2.16 ± 0.48
UniProt Q8N2K0 and related entries | 1.09 ± 0.011 | 1.04 ± 0.051 | 1.01 ± 0.017 | 1.017 ± 0.0025 | 1.03 ± 0.015 | 1.01 ± 0.023 | 0.997 ± 0.031 | 0.976 ± 0.034
ZNF579 (UniProt Q8NAF0) | 1.04 ± 0.04 | 0.954 ± 0.054 | 1 ± 0.048 | 0.991 ± 0.072 | 0.99 ± 0.059 | 0.938 ± 0.064 | 0.982 ± 0.042 | 1 ± 0.061
UniProt Q86YC3 | 1.13 ± 0.17 | 1.18 ± 0.26 | 1.13 ± 0.095 | 1.19 ± 0.13 | 1.15 ± 0.14 | 1.11 ± 0.18 | 1.12 ± 0.16 | 1.12 ± 0.097
UniProt Q8N163 | 0.965 ± 0.019 | 1.01 ± 0.057 | 1.07 ± 0.14 | 1.12 ± 0.19 | 1.16 ± 0.26 | 1.14 ± 0.23 | 1.14 ± 0.21 | 1.09 ± 0.21
UniProt Q8WU10 and related entries | 1.07 ± 0.1 | 1.05 ± 0.071 | 0.971 ± 0.07 | 1.01 ± 0.096 | 1.03 ± 0.075 | 1.01 ± 0.048 | 1 ± 0.02 | 0.967 ± 0.12
WDFY1 (UniProt Q8IWB7) | 1.24 ± 0.16 | 1.21 ± 0.22 | 1.13 ± 0.15 | 1.1 ± 0.17 | 1.1 ± 0.15 | 1.05 ± 0.12 | 1.17 ± 0.3 | 1.1 ± 0.22
UniProt Q8TB61 and related entries | 0.954 ± 0.15 | 0.957 ± 0.064 | 0.953 ± 0.061 | 0.929 ± 0.053 | 0.942 ± 0.095 | 0.909 ± 0.042 | 0.923 ± 0.13 | 0.992 ± 0.09
UniProt Q8NFC6 | 0.969 ± 0.048 | 0.992 ± 0.065 | 0.995 ± 0.052 | 0.965 ± 0.073 | 0.957 ± 0.056 | 0.973 ± 0.054 | 1.01 ± 0.078 | 1.01 ± 0.081
ARL6IP6 (UniProt Q8N6S5) | 0.994 ± 0.05 | 1.06 ± 0.14 | 1.05 ± 0.077 | 0.998 ± 0.095 | 0.991 ± 0.11 | 0.979 ± 0.065 | 0.982 ± 0.032 | 0.992 ± 0.11
UniProt Q8NI08 and related entries | 0.979 ± 0.011 | 0.927 ± 0.017 | 0.928 ± 0.045 | 0.931 ± 0.078 | 0.907 ± 0.052 | 0.936 ± 0.11 | 0.901 ± 0.029 | 0.908 ± 0.054
UniProt Q8N4J0 | 1.06 ± 0.047 | 1.05 ± 0.089 | 0.9094 ± 0.0032 | 0.911 ± 0.079 | 0.879 ± 0.092 | 0.877 ± 0.068 | 0.875 ± 0.061 | 0.805 ± 0.1
STT3B (UniProt Q8TCJ2) | 1.05 ± 0.021 | 1.09 ± 0.052 | 1 ± 0.014 | 1.03 ± 0.042 | 1.02 ± 0.026 | 1.01 ± 0.017 | 1.01 ± 0.013 | 0.999 ± 0.051
PPTC7 (UniProt Q8NI37) | 0.997 ± 0.057 | 0.967 ± 0.0097 | 1.01 ± 0.078 | 0.932 ± 0.019 | 0.852 ± 0.024 | 0.888 ± 0.021 | 0.941 ± 0.023 | 0.95 ± 0.021
NECAP1 (UniProt Q8NC96) | 0.993 ± 0.18 | 0.957 ± 0.12 | 1.01 ± 0.057 | 0.972 ± 0.067 | 0.958 ± 0.14 | 0.922 ± 0.086 | 1.01 ± 0.088 | 0.988 ± 0.092
UniProt Q8TAP9 | 0.932 ± 0.08 | 0.93 ± 0.11 | 1.07 ± 0.075 | 1.04 ± 0.17 | 0.916 ± 0.12 | 1.04 ± 0.2 | 1.03 ± 0.065 | 1.11 ± 0.23
UniProt Q8N9V3 and related entries | 0.99 ± 0.016 | 1.01 ± 0.015 | 0.951 ± 0.081 | 0.962 ± 0.067 | 0.926 ± 0.09 | 0.938 ± 0.095 | 0.92 ± 0.096 | 0.935 ± 0.12
NUP43 (UniProt Q8NFH3) | 1.02 ± 0.058 | 1.0858 ± 0.0002 | 0.954 ± 0.03 | 1.05 ± 0.099 | 1.08 ± 0.058 | 1.11 ± 0.027 | 1.11 ± 0.071 | 1.13 ± 0.066

Quoted from above (2 entries):
Target | NP40-soluble protein abundance (concentration: 0.1mM) | NP40-soluble protein abundance (concentration: 0.5mM) | NP40-soluble protein abundance (concentration: 1mM) | NP40-soluble protein abundance (concentration: 2mM) | NP40-soluble protein abundance (concentration: 4mM) | NP40-soluble protein abundance (concentration: 6mM) | NP40-soluble protein abundance (concentration: 8mM) | NP40-soluble protein abundance (concentration: 10mM)
UniProt Q8N163 | 0.965 ± 0.019 | 1.01 ± 0.057 | 1.07 ± 0.14 | 1.12 ± 0.19 | 1.16 ± 0.26 | 1.14 ± 0.23 | 1.14 ± 0.21 | 1.09 ± 0.21
UniProt Q8WU10 and related entries | 1.07 ± 0.1 | 1.05 ± 0.071 | 0.971 ± 0.07 | 1.01 ± 0.096 | 1.03 ± 0.075 | 1.01 ± 0.048 | 1 ± 0.02 | 0.967 ± 0.12
